Article PMC6864981
No constants are given. Whether binding was seen depends on the method and setting. In cells and extracts the contact can be indirect. Some results given as binding are weak or reduced against the parent protein; the word gives no strength.

Sequences of proteins named here, by UniProt entry; tags and fusion partners are left off. Residues count along the entry.
UniProt P30101, residues 25-505: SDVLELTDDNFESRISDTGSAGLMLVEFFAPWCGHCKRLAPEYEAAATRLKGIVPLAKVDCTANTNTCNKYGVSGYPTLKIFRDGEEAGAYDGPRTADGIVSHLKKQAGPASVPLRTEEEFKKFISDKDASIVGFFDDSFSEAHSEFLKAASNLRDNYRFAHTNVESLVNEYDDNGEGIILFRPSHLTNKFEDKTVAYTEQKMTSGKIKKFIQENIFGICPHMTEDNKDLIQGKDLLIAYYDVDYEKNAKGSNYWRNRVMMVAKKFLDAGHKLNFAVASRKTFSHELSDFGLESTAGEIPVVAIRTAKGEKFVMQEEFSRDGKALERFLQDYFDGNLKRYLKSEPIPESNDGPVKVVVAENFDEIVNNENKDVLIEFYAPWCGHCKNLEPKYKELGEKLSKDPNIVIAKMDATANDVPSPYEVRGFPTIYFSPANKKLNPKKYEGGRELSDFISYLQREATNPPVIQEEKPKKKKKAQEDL
UniProt P40763: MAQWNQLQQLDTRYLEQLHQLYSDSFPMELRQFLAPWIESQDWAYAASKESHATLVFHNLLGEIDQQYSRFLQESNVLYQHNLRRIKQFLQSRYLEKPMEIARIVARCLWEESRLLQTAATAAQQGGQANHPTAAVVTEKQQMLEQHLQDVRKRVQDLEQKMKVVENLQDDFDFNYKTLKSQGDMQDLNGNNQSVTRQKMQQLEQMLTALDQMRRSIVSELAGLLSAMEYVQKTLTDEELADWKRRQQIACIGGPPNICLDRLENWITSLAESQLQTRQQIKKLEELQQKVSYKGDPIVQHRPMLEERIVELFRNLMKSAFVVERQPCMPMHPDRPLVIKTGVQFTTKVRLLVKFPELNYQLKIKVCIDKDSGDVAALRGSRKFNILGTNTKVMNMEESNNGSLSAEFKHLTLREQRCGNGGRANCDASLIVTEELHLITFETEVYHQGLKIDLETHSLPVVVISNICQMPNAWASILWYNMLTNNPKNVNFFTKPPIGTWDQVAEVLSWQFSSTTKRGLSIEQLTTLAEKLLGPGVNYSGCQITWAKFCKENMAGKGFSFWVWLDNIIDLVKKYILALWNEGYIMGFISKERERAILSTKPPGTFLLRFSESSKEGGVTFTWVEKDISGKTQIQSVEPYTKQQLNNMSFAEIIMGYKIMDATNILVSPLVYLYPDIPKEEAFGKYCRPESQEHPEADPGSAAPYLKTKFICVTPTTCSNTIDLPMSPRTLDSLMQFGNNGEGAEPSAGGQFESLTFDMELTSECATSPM

What was measured:
[1] = target: ERp57 (human (endogenous in A498)) (UniProt P30101); experiment: proximity ligation; A498 cells (transfected with pWPI-ERp57 or empty vector), fixed with 4% paraformaldehyde; anti-ERp57 and anti-STAT3, Duolink in situ PLA kits, confocal microscopy
[2] = target: ERp57 (human (endogenous in A498)) (UniProt P30101); experiment: co-IP; A498 cells transfected with pWPI-ERp57 or empty vector, lysed in RIPA; lysates immunoprecipitated with anti-ERp57, protein A-agarose; STAT3 detected by Western blot

binding [1]: binds
binding [2]: binds
Substance: signal transducer and activator of transcription 3 (STAT3) (from UniProt P40763 1-770)
